Laboratory results published in publication PMC9224296.
Residue numbers refer to the chain shown, from its start. These are yes or no findings as the source states them, for the method shown. In cells and extracts the contact can be indirect. Some results given as binding are weak or reduced against the parent protein; the word gives no strength. For some assays here: Tags and fused reporters may be left off the sequences shown.

Amino acid sequences for entries named in this document (tags omitted).
UniProt Q9WUM4: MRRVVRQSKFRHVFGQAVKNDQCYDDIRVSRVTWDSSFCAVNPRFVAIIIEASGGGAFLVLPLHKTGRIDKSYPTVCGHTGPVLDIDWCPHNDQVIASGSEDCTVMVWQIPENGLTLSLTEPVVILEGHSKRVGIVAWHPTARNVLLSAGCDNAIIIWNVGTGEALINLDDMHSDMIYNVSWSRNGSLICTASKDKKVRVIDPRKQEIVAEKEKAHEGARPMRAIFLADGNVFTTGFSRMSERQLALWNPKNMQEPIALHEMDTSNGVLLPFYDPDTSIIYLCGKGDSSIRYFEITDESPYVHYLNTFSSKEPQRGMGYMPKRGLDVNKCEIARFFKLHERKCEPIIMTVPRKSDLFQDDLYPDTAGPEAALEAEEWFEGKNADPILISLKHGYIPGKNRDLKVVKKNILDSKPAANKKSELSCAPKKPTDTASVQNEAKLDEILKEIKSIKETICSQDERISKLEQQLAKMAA

How the values were obtained:
[1] = target: T1, GFP-Rab44 dominant-negative (DN) mutant (T551N) (mouse) (UniProt Q8CB87); experiment: proximity ligation; Duolink PLA in fixed, permeabilised RAW-D cells with rabbit anti-Rab44 and mouse anti-Coronin1C; RCA products counted per cell by confocal microscopy
T1 sequence: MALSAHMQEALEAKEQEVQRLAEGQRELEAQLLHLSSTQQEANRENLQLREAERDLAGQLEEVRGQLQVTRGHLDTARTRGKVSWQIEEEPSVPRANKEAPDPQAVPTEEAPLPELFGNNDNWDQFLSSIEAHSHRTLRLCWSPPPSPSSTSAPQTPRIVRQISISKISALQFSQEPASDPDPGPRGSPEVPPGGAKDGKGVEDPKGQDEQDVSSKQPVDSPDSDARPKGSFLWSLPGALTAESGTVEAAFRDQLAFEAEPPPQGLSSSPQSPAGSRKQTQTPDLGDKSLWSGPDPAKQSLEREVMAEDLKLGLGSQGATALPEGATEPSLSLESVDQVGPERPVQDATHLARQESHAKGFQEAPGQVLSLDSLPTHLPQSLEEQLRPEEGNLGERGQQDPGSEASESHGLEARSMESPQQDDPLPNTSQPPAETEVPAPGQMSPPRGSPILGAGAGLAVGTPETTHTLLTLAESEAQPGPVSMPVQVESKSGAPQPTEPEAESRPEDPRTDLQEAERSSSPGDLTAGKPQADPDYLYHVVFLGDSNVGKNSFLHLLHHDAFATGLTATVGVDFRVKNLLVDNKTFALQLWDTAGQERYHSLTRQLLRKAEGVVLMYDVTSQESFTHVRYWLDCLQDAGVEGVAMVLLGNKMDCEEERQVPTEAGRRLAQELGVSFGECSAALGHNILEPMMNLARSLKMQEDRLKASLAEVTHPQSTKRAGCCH

GFP-Rab44 (WT) (mouse) [2] = target: T2, GFP-Rab44 (WT) (mouse) (UniProt Q8CB87); experiment: as above
T2 sequence: T1 sequence with N551T

[3] = target: T3, endogenous Rab44 (mouse (endogenous in RAW-D)) (UniProt Q8CB87); experiment: as above
T3 sequence: T1 sequence with N551T

[4] = target: T1, GFP-Rab44 dominant-negative (DN) mutant (T551N) (mouse); experiment: co-IP; IP with GFP antibody from lysates of RAW-D cells expressing GFP only, GFP-Rab44 WT, CA or DN; Western blot with anti-Coronin1C
GFP-Rab44 (WT) (mouse) [5] = target: T2, GFP-Rab44 (WT) (mouse); experiment: as above

Measured: binding

Coronin1C (from UniProt Q9WUM4 1-474)
binds: all assays above
